Measured values taken from the supplement of paper PMC12009310.
Counter-ions that a name gives are not always drawn. ± gives the standard deviation of the averaged measurements. The list shows a part of the results. Baselines shift from plate to plate; read single values as rough.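 The cells are a mouse kidney inner medullary collecting duct line, silenced either for the ciliary gene Rpgrip1l or with a non-targeting control siRNA.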

Assays:
mIMCD3 [1] = experiment: robust z score of cell number vs plate controls; higher = more cells (less cytotoxic); conditions: 10 µM, 48 h
mIMCD3 [2] = experiment: robust z score of cilia incidence (% cells with single cilium) vs plate controls; higher = more ciliated cells; conditions: 10 µM; 48 h; siRNA: siScr
mIMCD3 [3] = experiment: robust z score of cilia incidence (% cells with single cilium) vs plate controls; higher = more ciliated cells (rescue of cilia loss); conditions: 10 µM; 48 h; siRNA: siRpgrip1l

Structure (SMILES)	robust z score of cell number (mIMCD3 [1]; siRNA: siRpgrip1l)	robust z score of cell number (mIMCD3 [1]; siRNA: siScr)	robust z score of cilia incidence (mIMCD3 [2])	robust z score of cilia incidence (mIMCD3 [3])
C[C@H]1CCC/C=C/[C@@H]2C[C@H](O)C[C@H]2[C@H](O)/C=C/C(=O)O1 [Brefeldin A]	-307 ± 220	-40.5 ± 9.6	-53.5 ± 8.1	-29.2 ± 9.1
COc1ccc(CCN2CCC(Nc3nc4ccccc4n3Cc3ccc(F)cc3)CC2)cc1 [Astemizole]	-31.5 ± 30	-14.6 ± 13	-24.4 ± 14	-25.7 ± 7.9
Fc1ccc(C(OCCN2CCN(CCCc3ccccc3)CC2)c2ccc(F)cc2)cc1	-126 ± 100	-83.6 ± 45	-27.1 ± 24	-48.8 ± 26
O=C1CSC(c2ccccc2Cl)c2cc(Cl)ccc2N1 (stereo not given)	-13.8 ± 8.2	-1.98 ± 3.7	0.0374 ± 0.67	-15.4 ± 0.56
CN1Cc2ccccc2[C@@H]2c3cccc4[nH]cc(c34)C[C@H]21	-281 ± 200	-36.8 ± 8.6	-16 ± 9.4	-15.4 ± 4.7
COC(=O)[C@@H](N)CCCNC(=N)N[N+](=O)[O-] [L-NAME hydrochloride]	3.79 ± 1.3	4.78 ± 6.9	-0.131 ± 1.4	-8.43 ± 8.1
CC(C)(C)NCC(O)COc1cccc2[nH]c(C#N)cc12 (stereo not given) [Cyanopindolol hemifumarate]	-50.2 ± 66	-2.18 ± 4.1	-0.578 ± 1.8	-11.2 ± 5
Cc1cc(C)cc(C(=O)OC2C[C@H]3CC[C@@H](C2)N3C)c1 (stereo not given in full) [Tropanyl-3,5-dimethylbenzoate]	-99.2 ± 72	-127 ± 110	-19 ± 2.5	-54.9 ± 6
CN1CCc2cc3c(cc2C1C1OC(=O)c2c1ccc1c2OCO1)OCO3 (single isomer, unassigned; (+)) [(+)-Bicuculline]	-1.51 ± 3.5	-3.83 ± 4.8	0.577 ± 0.35	-9.65 ± 1.1
CN1C[C@H](CNC(=O)OCc2ccccc2)C[C@@H]2c3cccc4c3c(cn4C)C[C@H]21 [Metergoline]	-49.4 ± 27	-86.8 ± 63	-14 ± 4.3	-40.1 ± 4

Molecules shown so far with fluorine (two):
Structure (SMILES)	robust z score of cell number (mIMCD3 [1]; siRNA: siRpgrip1l)	robust z score of cell number (mIMCD3 [1]; siRNA: siScr)	robust z score of cilia incidence (mIMCD3 [2])	robust z score of cilia incidence (mIMCD3 [3])
COc1ccc(CCN2CCC(Nc3nc4ccccc4n3Cc3ccc(F)cc3)CC2)cc1 [Astemizole]	-31.5 ± 30	-14.6 ± 13	-24.4 ± 14	-25.7 ± 7.9
Fc1ccc(C(OCCN2CCN(CCCc3ccccc3)CC2)c2ccc(F)cc2)cc1	-126 ± 100	-83.6 ± 45	-27.1 ± 24	-48.8 ± 26
